Laboratory results taken from patent publication US6372747B1, “Farnesyl protein transferase inhibitors” (Schering Corporation, priority 1998, dated 2002).
pIC50: −log10 of the molar value. Where two headings read alike, the source gives them in different places. Some of these results come from one statement about several compounds together.

Sequences of proteins named here, by UniProt entry; tags and fusion partners are left off.
UniProt Q02293, whole entry: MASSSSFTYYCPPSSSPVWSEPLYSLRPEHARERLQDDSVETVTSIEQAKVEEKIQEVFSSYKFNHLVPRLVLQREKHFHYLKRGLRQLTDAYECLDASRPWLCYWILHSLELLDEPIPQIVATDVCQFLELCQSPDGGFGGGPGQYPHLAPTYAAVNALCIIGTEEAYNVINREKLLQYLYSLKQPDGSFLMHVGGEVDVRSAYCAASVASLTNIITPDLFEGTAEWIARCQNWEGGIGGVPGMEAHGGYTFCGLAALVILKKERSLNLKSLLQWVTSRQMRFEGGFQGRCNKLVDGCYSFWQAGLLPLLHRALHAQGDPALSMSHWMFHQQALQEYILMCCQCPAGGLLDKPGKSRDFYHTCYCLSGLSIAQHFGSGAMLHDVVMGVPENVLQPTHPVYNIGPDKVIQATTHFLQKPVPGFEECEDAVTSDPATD

Target: farnesyl protein transferase (Rattus norvegicus, UniProt Q02293+Q04631)
Assay: FPT IC50 (inhibition of farnesyl protein transferase, in vitro enzyme assay)
Format: biochemical
[1] = value is the range stated for the group unless single, read-out: FPT IC50
[2] = read-out: FPT IC50, value is the range stated for the group unless single

Row | SMILES | pIC50 [1] | pIC50 [2]
1 | O=C(NCCCn1ccnc1)[C@H]1CN([C@@H]2c3ccc(Cl)cc3CCc3cc(Br)cnc32)CCN1C(=O)Cc1cc[n+]([O-])cc1 [Example 67] | ≥ 8.17 | –
2 | O=C(NCCCn1ccnc1)[C@H]1CN([C@H]2c3ccc(Cl)cc3CCc3cc(Br)cnc32)CCN1C(=O)Cc1cc[n+]([O-])cc1 [Example 68] | ≥ 8.17 | –
3 | O=C([C@H]1CN([C@H]2c3ccc(Cl)cc3CCc3cc(Br)cnc32)CCN1C(=O)Oc1ccccc1)N(CCCn1ccnc1)Cc1ccccc1 [Example 168] | – | ≥ 8.17
4 | O=C([C@H]1CN([C@@H]2c3ccc(Cl)cc3CCc3cc(Br)cnc32)CCN1C(=O)Oc1ccc(Cl)cc1)N(CCCn1ccnc1)Cc1ccccc1 [Example 182] | – | ≥ 8.17
